Patent publication EP2157088A1, “INDICYANINE DYES AND THE DERIVATIVES THEREOF FOR ANALYSING BIOLOGICAL MICROMOLECULES” (UCHREZHDENIE ROSSIISKOI AKADEMII NAUK INSTITUT …, priority 2007, dated 2008)

Test: Sensitivity of record of dye-labeled oligonucleotides in hydrogel cells of a biochip (portable fluorescent analyzer, 655 nm / 690 nm, 40 mW)
Settings: semiconductor laser 655 nm / 690 nm

CC1(C)C(=CC=CC=CC2=[N+](CCCCS(=O)(=O)[O-])c3ccc(CCC(=O)O)cc3C2(C)C)N(CCCCS(=O)(=O)[O-])c2ccccc21.[Na+] [B5, N,N'-disulfobutyl-5-carboxyethyl-3,3,3',3'-tetramethylindodicarbocyanine, sodium salt]
sensitivity of record (lower threshold of sensitivity): 5e-18 mol

CC1(C)C(C=CC=CC=C2N(CCCCS(=O)(=O)O)c3ccccc3C2(C)CCCCC(=O)O)=[N+](CCCCS(=O)(=O)[O-])c2ccccc21 (centres unmarked) [A10, N,N'-di(4-sulfobutyl)-3-(4-carboxybutyl)-3,3',3'-trimethylindodicarbocyanine, sodium salt]
sensitivity of record (lower threshold of sensitivity): 3e-18 mol

Structures can show the parent of a compound that is named as a salt.
